Measured values reported in article PMC12688110.
These are yes or no findings as the source states them, for the method shown. In cells and extracts the contact can be indirect. Some entries that bind do so weakly or less than the wild type. Sequences can lack the tags named with a protein.

Chains of the proteins cited; added tags and fusions are not shown.
UniProt P13945: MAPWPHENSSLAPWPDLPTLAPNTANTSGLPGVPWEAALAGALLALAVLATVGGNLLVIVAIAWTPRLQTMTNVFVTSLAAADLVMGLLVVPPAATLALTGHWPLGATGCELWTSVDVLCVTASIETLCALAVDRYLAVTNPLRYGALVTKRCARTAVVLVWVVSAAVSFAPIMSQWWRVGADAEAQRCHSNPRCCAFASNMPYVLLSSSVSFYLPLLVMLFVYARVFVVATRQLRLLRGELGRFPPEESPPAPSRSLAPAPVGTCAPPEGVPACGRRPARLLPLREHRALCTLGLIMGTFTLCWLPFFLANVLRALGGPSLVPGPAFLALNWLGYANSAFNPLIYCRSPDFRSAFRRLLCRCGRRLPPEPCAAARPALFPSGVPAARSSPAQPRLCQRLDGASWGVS

Molecular target: ADRB3-mCherry (from pCMV-ADRB3-mCherry) (UniProt P13945)
Assay: co-IP; HEK293T cells transfected with plasmids (LipoMax), collected for coIP; bait, antibodies and buffers not described

B1: S100B-eGFP (from pCMV-S100B-eGFP) (protein, UniProt P04271 1-92)
chain: MSELEKAMVALIDVFHQYSGREGDKHKLKKSELKELINNELSHFLEEIKEQEVVDKVMETLDNDGDGECDFQEFMAFVAMVTTACHEFFEHE
With B1 the binding was “binds”.
